Data published in the supplement of paper PMC10849652.
The other results are listed elsewhere or left out.

Chains of the proteins cited; added tags and fusions are not shown. Lines headed by an entry give the natural chain unless they say otherwise; changes in a name come on top.
UniProt O14933: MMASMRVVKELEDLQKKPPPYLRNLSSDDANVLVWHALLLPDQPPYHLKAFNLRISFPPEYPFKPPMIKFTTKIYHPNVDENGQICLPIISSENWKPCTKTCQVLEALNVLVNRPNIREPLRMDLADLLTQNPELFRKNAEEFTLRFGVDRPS
UniProt O00124: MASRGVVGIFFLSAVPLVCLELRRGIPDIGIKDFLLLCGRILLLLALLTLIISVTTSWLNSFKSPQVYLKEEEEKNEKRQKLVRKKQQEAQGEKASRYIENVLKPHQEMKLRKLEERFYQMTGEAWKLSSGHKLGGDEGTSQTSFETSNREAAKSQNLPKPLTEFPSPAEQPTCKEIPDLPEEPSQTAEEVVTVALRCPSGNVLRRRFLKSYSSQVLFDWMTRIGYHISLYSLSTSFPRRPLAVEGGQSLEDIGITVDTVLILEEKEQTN
UniProt Q5T4S7, whole entry, looked up: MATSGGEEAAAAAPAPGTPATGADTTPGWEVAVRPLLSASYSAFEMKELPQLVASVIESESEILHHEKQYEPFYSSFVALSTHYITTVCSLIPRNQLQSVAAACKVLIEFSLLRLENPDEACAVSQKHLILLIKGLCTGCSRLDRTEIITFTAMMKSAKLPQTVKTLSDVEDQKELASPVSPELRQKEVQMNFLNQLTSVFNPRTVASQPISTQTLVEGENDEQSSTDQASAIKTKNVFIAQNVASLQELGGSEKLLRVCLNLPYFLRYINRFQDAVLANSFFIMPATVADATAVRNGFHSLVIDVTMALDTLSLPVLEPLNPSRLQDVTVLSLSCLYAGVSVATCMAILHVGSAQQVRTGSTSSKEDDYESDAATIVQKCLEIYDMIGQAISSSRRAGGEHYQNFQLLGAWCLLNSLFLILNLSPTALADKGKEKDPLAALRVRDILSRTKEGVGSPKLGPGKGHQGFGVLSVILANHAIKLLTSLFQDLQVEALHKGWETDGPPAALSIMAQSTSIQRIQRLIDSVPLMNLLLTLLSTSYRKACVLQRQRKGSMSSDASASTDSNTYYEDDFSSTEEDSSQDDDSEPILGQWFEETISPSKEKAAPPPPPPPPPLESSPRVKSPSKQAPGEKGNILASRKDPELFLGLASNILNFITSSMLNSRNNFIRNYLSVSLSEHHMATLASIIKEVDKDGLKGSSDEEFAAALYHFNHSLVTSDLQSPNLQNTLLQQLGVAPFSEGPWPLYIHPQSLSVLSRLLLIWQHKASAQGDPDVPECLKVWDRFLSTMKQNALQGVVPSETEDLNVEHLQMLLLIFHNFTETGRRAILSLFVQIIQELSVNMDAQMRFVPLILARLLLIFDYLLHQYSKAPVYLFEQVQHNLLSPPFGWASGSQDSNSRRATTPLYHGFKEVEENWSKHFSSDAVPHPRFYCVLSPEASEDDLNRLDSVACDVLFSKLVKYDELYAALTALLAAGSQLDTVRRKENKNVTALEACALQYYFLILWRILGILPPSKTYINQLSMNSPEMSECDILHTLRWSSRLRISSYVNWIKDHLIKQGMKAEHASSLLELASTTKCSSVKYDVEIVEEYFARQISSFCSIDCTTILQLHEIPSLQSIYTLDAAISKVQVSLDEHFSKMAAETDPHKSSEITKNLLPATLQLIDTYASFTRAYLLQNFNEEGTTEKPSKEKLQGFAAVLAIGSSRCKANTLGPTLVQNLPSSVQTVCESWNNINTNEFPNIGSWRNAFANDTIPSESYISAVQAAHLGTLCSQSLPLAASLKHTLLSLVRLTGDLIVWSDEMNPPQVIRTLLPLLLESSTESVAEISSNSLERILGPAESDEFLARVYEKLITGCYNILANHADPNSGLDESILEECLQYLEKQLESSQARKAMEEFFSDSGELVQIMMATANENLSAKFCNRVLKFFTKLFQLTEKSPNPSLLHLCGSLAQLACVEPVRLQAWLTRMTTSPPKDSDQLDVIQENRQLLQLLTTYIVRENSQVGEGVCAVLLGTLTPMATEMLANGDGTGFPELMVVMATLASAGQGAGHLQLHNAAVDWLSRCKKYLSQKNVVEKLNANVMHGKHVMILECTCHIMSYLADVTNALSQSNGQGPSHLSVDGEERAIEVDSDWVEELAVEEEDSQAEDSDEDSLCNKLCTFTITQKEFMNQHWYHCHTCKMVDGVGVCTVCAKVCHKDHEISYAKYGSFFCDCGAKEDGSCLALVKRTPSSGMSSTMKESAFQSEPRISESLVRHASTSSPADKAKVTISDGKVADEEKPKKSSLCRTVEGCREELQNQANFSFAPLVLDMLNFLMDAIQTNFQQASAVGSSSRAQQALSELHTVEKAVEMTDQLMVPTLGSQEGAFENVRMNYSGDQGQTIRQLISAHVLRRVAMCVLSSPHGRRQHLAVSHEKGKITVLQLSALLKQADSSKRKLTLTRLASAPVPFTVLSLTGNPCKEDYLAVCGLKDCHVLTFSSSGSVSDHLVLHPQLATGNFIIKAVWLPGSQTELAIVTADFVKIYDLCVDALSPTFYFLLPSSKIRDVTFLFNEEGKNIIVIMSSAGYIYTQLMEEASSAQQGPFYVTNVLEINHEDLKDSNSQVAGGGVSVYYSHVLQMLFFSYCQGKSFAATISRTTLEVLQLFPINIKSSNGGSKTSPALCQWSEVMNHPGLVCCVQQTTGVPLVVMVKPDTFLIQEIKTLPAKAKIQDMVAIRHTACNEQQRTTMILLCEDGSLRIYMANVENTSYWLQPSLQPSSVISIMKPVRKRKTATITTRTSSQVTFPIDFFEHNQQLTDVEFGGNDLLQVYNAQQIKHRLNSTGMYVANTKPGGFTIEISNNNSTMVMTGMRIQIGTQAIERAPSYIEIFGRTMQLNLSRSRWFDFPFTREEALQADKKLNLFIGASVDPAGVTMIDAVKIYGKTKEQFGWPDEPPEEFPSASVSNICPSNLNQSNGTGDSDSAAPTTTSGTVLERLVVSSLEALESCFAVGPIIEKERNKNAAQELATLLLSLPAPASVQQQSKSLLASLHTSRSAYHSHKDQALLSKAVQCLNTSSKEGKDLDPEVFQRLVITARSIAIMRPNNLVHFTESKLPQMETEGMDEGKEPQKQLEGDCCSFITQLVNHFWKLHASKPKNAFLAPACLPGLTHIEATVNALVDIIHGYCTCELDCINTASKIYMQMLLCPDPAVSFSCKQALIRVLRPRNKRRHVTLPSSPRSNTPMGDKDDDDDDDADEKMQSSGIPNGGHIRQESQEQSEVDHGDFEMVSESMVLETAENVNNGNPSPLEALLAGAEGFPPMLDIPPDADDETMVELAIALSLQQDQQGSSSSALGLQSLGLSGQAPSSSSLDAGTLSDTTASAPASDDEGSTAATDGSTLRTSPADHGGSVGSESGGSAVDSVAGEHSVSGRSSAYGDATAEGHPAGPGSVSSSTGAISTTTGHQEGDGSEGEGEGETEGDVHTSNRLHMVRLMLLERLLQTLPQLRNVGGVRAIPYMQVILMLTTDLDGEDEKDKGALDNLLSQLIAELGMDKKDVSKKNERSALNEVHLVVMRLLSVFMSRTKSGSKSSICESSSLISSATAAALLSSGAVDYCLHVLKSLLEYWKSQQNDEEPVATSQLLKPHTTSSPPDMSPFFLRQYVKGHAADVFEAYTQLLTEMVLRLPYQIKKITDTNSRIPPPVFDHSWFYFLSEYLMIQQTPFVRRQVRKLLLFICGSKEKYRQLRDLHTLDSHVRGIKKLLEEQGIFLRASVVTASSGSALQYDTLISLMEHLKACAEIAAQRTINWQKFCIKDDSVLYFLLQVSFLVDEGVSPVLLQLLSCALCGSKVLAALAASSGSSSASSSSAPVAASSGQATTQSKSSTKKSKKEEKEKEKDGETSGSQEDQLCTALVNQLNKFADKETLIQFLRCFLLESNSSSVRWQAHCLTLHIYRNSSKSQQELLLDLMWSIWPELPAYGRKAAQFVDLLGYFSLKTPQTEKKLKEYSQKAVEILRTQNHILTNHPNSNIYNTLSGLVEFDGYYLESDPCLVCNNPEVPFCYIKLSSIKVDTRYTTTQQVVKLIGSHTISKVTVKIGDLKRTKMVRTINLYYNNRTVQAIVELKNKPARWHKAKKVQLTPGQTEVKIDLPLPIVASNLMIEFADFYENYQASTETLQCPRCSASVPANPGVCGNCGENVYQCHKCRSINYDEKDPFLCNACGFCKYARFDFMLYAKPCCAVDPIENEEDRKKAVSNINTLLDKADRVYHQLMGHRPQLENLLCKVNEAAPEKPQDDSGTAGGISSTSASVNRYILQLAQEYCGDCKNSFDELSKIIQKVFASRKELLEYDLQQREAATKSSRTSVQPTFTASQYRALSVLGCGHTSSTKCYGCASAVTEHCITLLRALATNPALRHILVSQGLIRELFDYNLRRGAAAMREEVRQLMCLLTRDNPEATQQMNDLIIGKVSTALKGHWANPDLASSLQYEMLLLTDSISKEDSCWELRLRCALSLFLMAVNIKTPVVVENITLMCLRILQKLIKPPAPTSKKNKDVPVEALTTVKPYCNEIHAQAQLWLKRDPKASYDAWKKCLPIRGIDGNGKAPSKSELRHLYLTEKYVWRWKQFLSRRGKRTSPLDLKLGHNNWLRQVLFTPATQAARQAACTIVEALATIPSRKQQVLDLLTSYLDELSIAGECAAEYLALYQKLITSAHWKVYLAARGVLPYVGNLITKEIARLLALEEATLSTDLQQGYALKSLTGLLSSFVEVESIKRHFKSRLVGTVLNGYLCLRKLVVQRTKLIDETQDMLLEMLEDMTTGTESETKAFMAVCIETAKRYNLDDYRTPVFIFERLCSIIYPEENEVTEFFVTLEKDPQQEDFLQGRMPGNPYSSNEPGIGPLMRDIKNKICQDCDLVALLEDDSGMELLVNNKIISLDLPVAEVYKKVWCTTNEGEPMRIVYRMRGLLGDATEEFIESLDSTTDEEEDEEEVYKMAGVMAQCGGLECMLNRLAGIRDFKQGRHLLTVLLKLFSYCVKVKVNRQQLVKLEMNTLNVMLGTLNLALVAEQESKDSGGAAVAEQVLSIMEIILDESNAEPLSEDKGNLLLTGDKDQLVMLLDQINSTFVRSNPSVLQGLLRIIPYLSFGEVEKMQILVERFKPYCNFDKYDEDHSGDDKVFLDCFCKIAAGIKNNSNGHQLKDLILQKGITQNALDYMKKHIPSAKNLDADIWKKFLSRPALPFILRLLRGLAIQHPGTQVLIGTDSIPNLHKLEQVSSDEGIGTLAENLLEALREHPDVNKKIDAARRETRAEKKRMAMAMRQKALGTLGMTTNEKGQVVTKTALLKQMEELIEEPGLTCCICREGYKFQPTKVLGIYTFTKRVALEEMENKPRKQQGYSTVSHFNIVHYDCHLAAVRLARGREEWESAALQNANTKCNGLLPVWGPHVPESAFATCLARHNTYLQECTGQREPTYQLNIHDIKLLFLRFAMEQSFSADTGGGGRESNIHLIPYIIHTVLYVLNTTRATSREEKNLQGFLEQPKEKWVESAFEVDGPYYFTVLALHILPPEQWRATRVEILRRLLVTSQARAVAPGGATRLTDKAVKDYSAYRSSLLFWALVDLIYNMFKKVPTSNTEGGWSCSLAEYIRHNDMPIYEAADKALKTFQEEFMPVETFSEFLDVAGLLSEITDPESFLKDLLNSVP
UniProt Q9BVA1, whole entry, looked up: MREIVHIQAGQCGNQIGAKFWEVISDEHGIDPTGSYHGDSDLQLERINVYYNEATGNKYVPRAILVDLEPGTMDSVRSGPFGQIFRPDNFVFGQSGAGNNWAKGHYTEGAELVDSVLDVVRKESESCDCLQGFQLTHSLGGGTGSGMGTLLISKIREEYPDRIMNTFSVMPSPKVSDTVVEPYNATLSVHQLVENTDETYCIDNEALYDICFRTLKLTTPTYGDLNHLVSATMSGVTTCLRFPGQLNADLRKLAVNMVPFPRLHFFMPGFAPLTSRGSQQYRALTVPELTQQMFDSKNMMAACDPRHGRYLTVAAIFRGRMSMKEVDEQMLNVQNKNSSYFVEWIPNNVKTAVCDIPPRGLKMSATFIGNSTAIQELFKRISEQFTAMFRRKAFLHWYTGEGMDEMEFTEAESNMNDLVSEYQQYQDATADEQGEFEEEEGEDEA
UniProt P04350, whole entry, looked up: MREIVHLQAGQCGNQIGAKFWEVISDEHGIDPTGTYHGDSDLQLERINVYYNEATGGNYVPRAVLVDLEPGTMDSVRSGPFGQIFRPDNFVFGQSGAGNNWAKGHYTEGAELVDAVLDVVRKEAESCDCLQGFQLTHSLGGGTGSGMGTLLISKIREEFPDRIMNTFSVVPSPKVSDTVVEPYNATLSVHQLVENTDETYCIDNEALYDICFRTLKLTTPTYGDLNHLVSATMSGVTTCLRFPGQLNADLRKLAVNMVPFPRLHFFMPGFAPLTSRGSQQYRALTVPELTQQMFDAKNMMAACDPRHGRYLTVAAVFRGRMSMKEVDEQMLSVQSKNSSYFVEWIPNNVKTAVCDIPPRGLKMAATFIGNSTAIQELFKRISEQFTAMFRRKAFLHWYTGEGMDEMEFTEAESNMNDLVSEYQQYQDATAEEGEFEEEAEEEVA

Tests used:
Assay in all cases: log2 fold change, soluble protein after heating vs DMSO (PISA); higher = thermal stabilisation; K562 lysate, 10 uM; active = over 0.2 and 3.5 SD of the protein, either way, in both replicates (recomputed)
[1] = compound: C1=CC=C(C=C1)[C@H](COC2=CC3=C(C=C2)NC(=O)N3)NC(=O)C4=CC=CN(C4=O)CC5=CC(=C(C=C5)F)F
In short: (§1)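 Quantification was by TMTpro 16plex LC-MS/MS with equalised channel sums, applied to the supernatant after 21,000xg for 90 min. Samples were crude K562 extract at 1 mg/mL protein in PBS pH 7.4 with 1 mM MgCl2, treated with 10 μM compound for 30 min, heated for 3 min across 48°C-58°C, pooled and brought to 0.5% NP-40 at 4°C. Values are log-two fold changes in thermal stability relative to solvent controls, from duplicates.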

[2] = compound: CC1=C(SC2=C1C(=N[C@H](C3=NN=C(N32)C)CC(=O)N)C4=CC=C(C=C4)Cl)C
In short: as §1

[3] = compound: CC1=C2C(=CC=C1)N=C(N(C2=O)C3=CC=CC=C3C)CN4C=NC5=C(N=CN=C54)N
In short: as §1

[4] = compound: Cc1sc2c(c1C)C(c1ccc(Cl)cc1)=N[C@@H](CC(=O)OC(C)(C)C)c1nnc(C)n1-2
In short: as §1

[5] = compound: c1ccc([C@@H]2C[C@H]2NC2CCNCC2)cc1
In short: as §1

Measured: log2 fold change

TUT1 (UniProt Q9H6E5)
inactive: [1] -0.029 | [2] 0.013 | [3] 0.012 | [4] 0.098 | [5] -0.019

UBE2L6 (UniProt O14933)
inactive: [1] -0.01 | [2] 0 | [3] -0.068 | [4] 0.032 | [5] 0.008

TUBB8B (UniProt A6NNZ2)
inactive: [1] -0.024 | [2] 0.093 | [3] -0.038 | [4] 0.032 | [5] -0.059

TYW1 (UniProt Q9NV66)
inactive: [1] 0.026 | [2] 0.108 | [3] -0.05 | [4] -0.062 | [5] 0.015

UBXN2A (UniProt P68543)
inactive: [1] -0.203 | [2] 0.009 | [3] -0.051 | [4] -0.021 | [5] -0.075

UBXN7 (UniProt O94888)
inactive: [1] 0.035 | [2] -0.031 | [3] -0.015 | [4] -0.02 | [5] -0.037

UBAP1 (UniProt Q9NZ09)
inactive: [1] 0.024 | [2] -0.094 | [3] -0.032 | [4] 0.013 | [5] -0.028

UBA6
inactive: [1] -0.008 | [2] -0.026 | [3] 0.016 | [4] 0.01 | [5] 0.009

UBE2A (UniProt P49459)
inactive: [1] -0.011 | [2] 0.086 | [3] -0.043 | [4] -0.031 | [5] 0.099

TUBA1B (UniProt P68363)
inactive: [1] -0.006 | [2] 0.014 | [3] 0.004 | [4] 0.015 | [5] -0.03

TXNL1 (UniProt O43396)
inactive: [1] -0.002 | [2] 0.008 | [3] -0.015 | [4] -0.009 | [5] 0.014

UBXN8 (UniProt O00124)
inactive: [4] -0.117 | [5] -0.087

UBN1 (UniProt Q9NPG3)
inactive: [3] 0.03 | [4] -0.164 | [5] 0.085

U2AF2 (UniProt K7ELP8)
inactive: [3] 0.061 | [5] 0.136

TULP3 isoform 2 (UniProt O75386)
inactive: [3] -0.034 | [4] 0.032

TXNDC2 (UniProt Q86VQ3)
inactive: [1] 0.021 | [2] -0.06 | [5] -0.01

UBR4 isoform 4 (UniProt Q5T4S7)
inactive: [3] -0.023 | [4] -0.284

TXNDC9 isoform 2 (UniProt O14530)
inactive: [4] -0.041

TXNDC16 (UniProt Q9P2K2)
inactive: [3] 0 | [4] -0.029 | [5] 0.037

Reprinted from the entries so far (nine entries):
TXNL1 (UniProt O43396)
inactive: [1] -0.002 | [2] 0.008 | [3] -0.015 | [4] -0.009 | [5] 0.014

UBXN8 (UniProt O00124)
inactive: [4] -0.117 | [5] -0.087

UBN1 (UniProt Q9NPG3)
inactive: [3] 0.03 | [4] -0.164 | [5] 0.085

U2AF2 (UniProt K7ELP8)
inactive: [3] 0.061 | [5] 0.136

TULP3 isoform 2 (UniProt O75386)
inactive: [3] -0.034 | [4] 0.032

TXNDC2 (UniProt Q86VQ3)
inactive: [1] 0.021 | [2] -0.06 | [5] -0.01

UBR4 isoform 4 (UniProt Q5T4S7)
inactive: [3] -0.023 | [4] -0.284

TXNDC9 isoform 2 (UniProt O14530)
inactive: [4] -0.041

TXNDC16 (UniProt Q9P2K2)
inactive: [3] 0 | [4] -0.029 | [5] 0.037

Further results:

TUBB2B (UniProt Q9BVA1)
inactive: [1] 0.022 | [2] 0.026 | [4] 0.122 | [5] 0.02

UBAP2L (UniProt F8W726)
inactive: [3] -0.018

TUFT1 (UniProt Q9NNX1)
inactive: [1] 0.093 | [2] -0.04 | [5] -0.119

UBE2O (UniProt K7ES11)
inactive: [5] 0.46

TYW5 (UniProt A2RUC4)
inactive: [1] 0.011 | [2] -0.19 | [5] 0.034

UBIAD1 (UniProt Q9Y5Z9)
inactive: [3] -0.025 | [4] -0.048 | [5] 0.025

UBOX5 (UniProt O94941)
inactive: [4] 0.119 | [5] -0.202

TUBB4A (UniProt P04350)
inactive: [1] 0.015 | [2] -0.03 | [4] 0.044 | [5] 0.044

UBN2 (UniProt Q6ZU65)
inactive: [3] 0.041 | [4] -0.03

U2SURP isoform 2 (UniProt O15042)
inactive: [3] -0.024 | [4] -0.03

UBA7 (UniProt P41226)
inactive: [5] -0.068

TUBA8 (UniProt Q9NY65)
inactive: [1] -0.104 | [2] -0.013 | [4] -0.363 | [5] -0.159

U2AF1L5 (UniProt P0DN76)
inactive: [4] 0.002 | [5] -0.499

TUBB6 (UniProt K7ES63)
inactive: [1] -0.115 | [2] 0.02 | [3] -0.028 | [5] -0.085
